In paper PMC6288840:
No constants are given. Whether binding was seen depends on the method and setting. In cells and extracts the contact can be indirect. Some entries that bind do so weakly or less than the wild type. Sequences can lack the tags named with a protein.

Sequences of proteins named here, by UniProt entry; tags and fusion partners are left off.
UniProt P22147: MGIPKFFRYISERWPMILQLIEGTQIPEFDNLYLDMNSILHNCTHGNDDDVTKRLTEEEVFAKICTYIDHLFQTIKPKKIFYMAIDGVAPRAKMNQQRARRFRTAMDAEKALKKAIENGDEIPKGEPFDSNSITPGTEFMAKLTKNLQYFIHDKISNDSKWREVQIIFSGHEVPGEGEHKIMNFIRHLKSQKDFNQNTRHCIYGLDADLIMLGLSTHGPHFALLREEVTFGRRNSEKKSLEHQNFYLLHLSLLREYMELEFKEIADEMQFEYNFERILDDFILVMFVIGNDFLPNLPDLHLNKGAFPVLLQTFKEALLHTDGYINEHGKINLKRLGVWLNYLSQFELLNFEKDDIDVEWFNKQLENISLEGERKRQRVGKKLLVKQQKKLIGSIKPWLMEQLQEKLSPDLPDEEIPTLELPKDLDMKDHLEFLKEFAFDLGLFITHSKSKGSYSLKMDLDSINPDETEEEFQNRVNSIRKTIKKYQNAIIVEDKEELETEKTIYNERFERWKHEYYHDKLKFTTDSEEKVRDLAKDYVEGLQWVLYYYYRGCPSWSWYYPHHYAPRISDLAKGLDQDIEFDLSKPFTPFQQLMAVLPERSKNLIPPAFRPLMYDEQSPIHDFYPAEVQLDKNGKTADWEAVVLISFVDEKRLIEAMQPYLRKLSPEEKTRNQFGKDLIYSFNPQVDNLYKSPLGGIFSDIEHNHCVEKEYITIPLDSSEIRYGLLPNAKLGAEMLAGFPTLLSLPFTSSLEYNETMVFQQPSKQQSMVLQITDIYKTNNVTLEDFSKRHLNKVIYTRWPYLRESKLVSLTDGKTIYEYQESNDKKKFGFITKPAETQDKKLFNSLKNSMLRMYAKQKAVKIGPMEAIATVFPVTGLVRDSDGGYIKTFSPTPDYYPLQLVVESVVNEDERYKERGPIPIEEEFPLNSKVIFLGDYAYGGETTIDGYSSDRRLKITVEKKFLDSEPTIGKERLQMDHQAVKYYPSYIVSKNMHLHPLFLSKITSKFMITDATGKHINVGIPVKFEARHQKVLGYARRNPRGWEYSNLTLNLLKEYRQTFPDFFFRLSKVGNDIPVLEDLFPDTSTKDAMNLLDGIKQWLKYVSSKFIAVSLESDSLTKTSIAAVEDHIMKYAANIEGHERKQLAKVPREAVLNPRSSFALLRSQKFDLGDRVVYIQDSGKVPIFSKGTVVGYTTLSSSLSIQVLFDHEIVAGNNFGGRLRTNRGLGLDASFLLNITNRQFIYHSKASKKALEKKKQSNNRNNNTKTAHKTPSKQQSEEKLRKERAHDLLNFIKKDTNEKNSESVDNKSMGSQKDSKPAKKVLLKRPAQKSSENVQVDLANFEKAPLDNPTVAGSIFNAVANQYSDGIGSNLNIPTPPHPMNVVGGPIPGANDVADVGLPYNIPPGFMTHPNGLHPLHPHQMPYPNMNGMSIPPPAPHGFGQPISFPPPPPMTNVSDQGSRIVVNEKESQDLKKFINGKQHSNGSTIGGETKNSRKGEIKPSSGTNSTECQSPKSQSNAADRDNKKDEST
UniProt P38249: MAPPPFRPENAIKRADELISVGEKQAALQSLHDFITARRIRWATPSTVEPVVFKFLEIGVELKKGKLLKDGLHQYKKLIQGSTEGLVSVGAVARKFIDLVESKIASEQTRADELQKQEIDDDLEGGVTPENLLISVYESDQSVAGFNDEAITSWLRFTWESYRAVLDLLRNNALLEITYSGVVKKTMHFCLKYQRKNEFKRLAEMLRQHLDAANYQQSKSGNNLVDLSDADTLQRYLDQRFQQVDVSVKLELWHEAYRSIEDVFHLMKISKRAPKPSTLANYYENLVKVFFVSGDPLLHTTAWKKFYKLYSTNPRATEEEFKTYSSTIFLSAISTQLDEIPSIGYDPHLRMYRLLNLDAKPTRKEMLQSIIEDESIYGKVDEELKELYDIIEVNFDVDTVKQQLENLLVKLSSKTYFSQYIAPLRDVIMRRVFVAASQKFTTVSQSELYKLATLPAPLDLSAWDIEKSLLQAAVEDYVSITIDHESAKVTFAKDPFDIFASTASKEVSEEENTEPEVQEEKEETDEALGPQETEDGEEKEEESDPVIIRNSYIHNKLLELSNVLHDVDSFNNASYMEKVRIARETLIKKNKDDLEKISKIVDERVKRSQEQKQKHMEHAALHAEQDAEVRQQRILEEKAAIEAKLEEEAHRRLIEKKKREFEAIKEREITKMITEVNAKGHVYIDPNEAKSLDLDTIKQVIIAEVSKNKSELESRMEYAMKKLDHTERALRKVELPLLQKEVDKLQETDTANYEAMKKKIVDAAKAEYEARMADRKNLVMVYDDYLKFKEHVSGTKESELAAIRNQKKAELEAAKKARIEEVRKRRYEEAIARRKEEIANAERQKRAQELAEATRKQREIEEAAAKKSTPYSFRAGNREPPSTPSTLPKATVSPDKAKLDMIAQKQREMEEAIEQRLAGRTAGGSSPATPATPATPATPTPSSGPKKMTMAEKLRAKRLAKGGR

The molecules below were run against Xrn1-Flag (S. cerevisiae) (UniProt P22147) (assay: co-IP; Xrn1-Flag immunoprecipitated with Flag antibodies from yeast cells that also carry a GFP-tagged partner; wild type or rad53 deletion cells, untreated or treated with 0.05% MMS for 3 hr).

Molecule | binding
Pat1-GFP (protein, UniProt P25644 1-796) MSFFGLENSGNARDGPLDFEESYKGYGEHELEENDYLNDETFGDNVQVGTDFDFGNPHSSGSSGNAIGGNGVGATARSYVAATAEGISGPRTDGTAAAGPLDLKPMESLWSTAPPPAMAPSPQSTMAPAPAPQQMAPLQPILSMQDLERQQRQMQQQFMNFHAMGHPQGLPQGPPQQQFPMQPASGQPGPSQFAPPPPPPGVNVNMNQMPMGPVQVPVQASPSPIGMSNTPSPGPVVGATKMPLQSGRRSKRDLSPEEQRRLQIRHAKVEKILKYSGLMTPRDKDFITRYQLSQIVTEDPYNEDFYFQVYKIIQRGGITSESNKGLIARAYLEHSGHRLGGRYKRTDIALQRMQSQVEKAVTVAKERPSKLKDQQAAAGNSSQDNKQANTVLGKISSTLNSKNPRRQLQIPRQQPSDPDALKDVTDSLTNVDLASSGSSSTGSSAAAVASKQRRRSSYAFNNGNGATNLNKSGGKKFILELIETVYEEILDLEANLRNGQQTDSTAMWEALHIDDSSYDVNPFISMLSFDKGIKIMPRIFNFLDKQQKLKILQKIFNELSHLQIIILSSYKTTPKPTLTQLKKVDLFQMIILKIIVSFLSNNSNFIEIMGLLLQLIRNNNVSFLTTSKIGLNLITILISRAALIKQDSSRSNILSSPEISTWNEIYDKLFTSLESKIQLIFPPREYNDHIMRLQNDKFMDEAYIWQFLASLALSGKLNHQRIIIDEVRDEIFATINEAETLQKKEKELSVLPQRSQELDTELKSIIYNKEKLYQDLNLFLNVMGLVYRDGEISELK | binds
Scd6-GFP (protein, UniProt P45978 1-349) MSQYIGKTISLISVTDNRYVGLLEDIDSEKGTVTLKEVRCFGTEGRKNWGPEEIYPNPTVYNSVKFNGSEVKDLSILDANINDIQPVVPQMMPPASQFPPQQAQSPPQAQAQAHVQTNPQVPKPESNVPAAVAGYGVYTPTSTETATASMNDKSTPQDTNVNSQSRERGKNGENEPKYQRNKNRSSNRPPQSNRNFKVDIPNEDFDFQSNNAKFTKGDSTDVEKEKELESAVHKQDESDEQFYNKKSSFFDTISTSTETNTNMRWQEEKMLNVDTFGQASARPRFHSRGLGRGRGNYRGNRGNRGRGGQRGNYQNRNNYQNDSGAYQNQNDSYSRPANQFSQPPSNVEF | binds
Pbp1-GFP (protein, UniProt P53297 1-722) MKGNFRKRDSSTNSRKGGNSDSNYTNGGVPNQNNSSMFYENPEITRNFDDRQDYLLANSIGSDVTVTVTSGVKYTGLLVSCNLESTNGIDVVLRFPRVADSGVSDSVDDLAKTLGETLLIHGEDVAELELKNIDLSLDEKWENSKAQETTPARTNIEKERVNGESNEVTKFRTDVDISGSGREIKERKLEKWTPEEGAEHFDINKGKALEDDSASWDQFAVNEKKFGVKSTFDEHLYTTKINKDDPNYSKRLQEAERIAKEIESQGTSGNIHIAEDRGIIIDDSGLDEEDLYSGVDRRGDELLAALKSNSKPNSNKGNRYVPPTLRQQPHHMDPAIISSSNSNKNENAVSTDTSTPAAAGAPEGKPPQKTSKNKKSLSSKEAQIEELKKFSEKFKVPYDIPKDMLEVLKRSSSTLKSNSSLPPKPISKTPSAKTVSPTTQISAGKSESRRSGSNISQGQSSTGHTTRSSTSLRRRNHGSFFGAKNPHTNDAKRVLFGKSFNMFIKSKEAHDEKKKGDDASENMEPFFIEKPYFTAPTWLNTIEESYKTFFPDEDTAIQEAQTRFQQRQLNSMGNAVPGMNPAMGMNMGGMMGFPMGGPSASPNPMMNGFAAGSMGMYMPFQPQPMFYHPSMPQMMPVMGSNGAEEGGGNISPHVPAGFMAAGPGAPMGAFGYPGGIPFQGMMGSGPSGMPANGSAMHSHGHSRNYHQTSHHGHHNSSTSGHK | binds
Lsm3-GFP (protein, UniProt P57743 1-89) METPLDLLKLNLDERVYIKLRGARTLVGTLQAFDSHCNIVLSDAVETIYQLNNEELSESERRCEMVFIRGDTVTLISTPSEDDDGAVEI | binds
Nrp1-GFP (protein, UniProt P32770 1-719) MHYVVLELQVAHLPDTPKDQCRIANIAFQIVNAETLVCHYGTNSLPSIEVNGTTKSLESAMVQLDKDIHDVIGNDDFVLVSLYSTWHIRVTLPRQARDDGFILTSYLQHPKVFDLWKEFDRWCVNHPEILGQKKAISNNNCNTKSISINAAKNTKDLDEIVRILEVSIPTEEAGSVPEIYSLLKRTTDILIQLHKKCTSPEDMESVLTKPYDSHTDIRAFLQEKSKILYMNNLPPDTTQSELESWFTQYGVRPVGFWTVKNIVEDTSNVNNNWSLNNSPYVEDQDSISGFVVFQTHEEATEVLALNGRSILSNLANTKQPRVVEHVLELQPSSTGVLDKAQEILSPFPQSKNKPRPGDWNCPSCGFSNFQRRTACFRCSFPAPSNSQIHTANSNNNVNSSRNNLNNRVNSGSSSNISNTAANHPYGAPEFNMIANNTPAALTYNRAHFPAITPLSRQNSLNMAPSNSGSPIIIADHFSGNNNIAPNYRYNNNINNNNNNINNMTNNRYNINNNINGNGNGNGNNSNNNNNHNNNHNNNHHNGSINSNSNTNNNNNNNNGNNSNNCNSNIGMGGCGSNMPFRAGDWKCSTCTYHNFAKNVVCLRCGGPKSISGDASETNHYIDSSTFGPASRTPSNNNISVNTNGGSNAGRTDGNDNKGRDISLMEFMSPPLSMATKSMKEGDGNGSSFNEFKSDKANVNFSNVGDNSAFGNGFNSSIRW | binds
Hsp26-GFP (protein, UniProt P15992 1-214) MSFNSPFFDFFDNINNEVDAFNRLLGEGGLRGYAPRRQLANTPAKDSTGKEVARPNNYAGALYDPRDETLDDWFDNDLSLFPSGFGFPRSVAVPVDILDHDNNYELKVVVPGVKSKKDIDIEYHQNKNQILVSGEIPSTLNEESKDKVKVKESSSGKFKRVITLPDYPGVDADNIKADYANGVLTLTVPKLKPQKDGKNHVKKIEVSSQESWGN | binds

The next lines start with the values.

binding | Molecule
binds | Rpg1-GFP (from UniProt P38249 1-964)
binds | YGR250C/Rie1-GFP (protein, UniProt P53316 1-781) MNIAEEPSDEVISSGPEDTDICSQQTSASAEAGDQSIKIERKTSTGLQLEQLANTNLLTIRIKWQLQEEEDDHCNSRITDQIMDTIQHYKGISVNNSDTETYEFLPDTRRLQVLEQNKDIYLYEHGSQEYEKSYKDNEEEDDWRYDTVLQAQFKYPKSLENACTDISELLKSEPIGQHIDKWSIGVNKHALTYPGNIFVGGIAKSLSIGELSFLFSKYGPILSMKLIYDKTKGEPNGYGFISYPLGSQASLCIKELNGRTVNGSTLFINYHVERKERERIHWDHVKENNNDDNFRCLFIGNLPYHNPEKVETLITPKEVIEVIKKELSKKFPDFDIISYYFPKRSNTRSSSSVSFNEEGSVESNKSSNNTNGNAQDEDMLKGYGFIKLINHEQALAAIETFNGFMWHGNRLVVNKAVQHKVYNNHNSHDRHPSISNHNDMEVLEFANNPMYDYNNYTYDRYYFNNNKNGNSNDTSNVRYFDSVRSTPVAEKMDLFYPQRESFSEGRGQRVPRFMGNKFDMYQYPSTSYSLPIPMSNQQESNLYVKHIPLSWTDEDLYDFYKSFGEIISVKVITVGGSKNKYRQQSNDSSSDNDLPVGSSRGYGFVSFESPLDAAKAILNTDGYQVSKDQVLSVSFAQKRGNLSSSDDDDQSQTDNSSKFQNFQPHNDYHKAYPTKYNKKFINALMTQNQSQQQVSRENYFIPLQYPNTNTKPVNSYNLISANQNNANWMMPMFPSFGFIPQVPPVPYIIPPQNPAANHIPIMANGSNEEEEFSSGDYSMDY
binds | Arx1-GFP (protein, UniProt Q03862 1-593) MALAISHEDTQILLKDKNILQESVLNKYRTAGQIAQTALKYVTSLINDSYHSKTTQRQLTVPELCLLTDSFILTRLEQYYKNKVNERGIAIPTTIDIDQISGGWCPEIDDTQNLLNWNKGKDSTFASSVTGTLRPGDLVKITLGVHIDGYTSEVSHTMVIYPVDETKPILQPTGPLLGGKADAVAAAHIAMETVVALLACALTPEKLPASLGGTSSGITGQLIRTIVDTIARSYNCGVVPGSRVRRIRRFLAGQNEGIVAEREYKGVVWTESHQEADLLSNTDAKDLTVVDRGQSTPFTNVSAIPSDDFVVQSGEVYLIDLKMASLEHCTKKGLVTLETVDSYTGKSHKAGELIARPGAYVRDFAQTHILKLKTSRQLLTKIDKQGVYPFKLSHLSSNFPFVHENEEELQSLKKDLKSFRLGMSEISNNYLCVESPIQIARWVPWDHILKATNPNGNLSYDATSTLTLPGHELPLPKLGVSAIKLKSLMNSTKESISLPVARECNTIVLCDSSVSTTDRPELLRLTGGSKTCQPSWIHSQHELNPQDSIVQGIFQLATLAKDKRFGLLLKETQPMKQKSVETSNGGVEETMKM
binds | Mss116-GFP (protein, UniProt P15424 27-664) NHITWAVSRRLYNDGNRDQRNFGRNQRNNNSNRYRNSRFNSRPRTRSREDDDEVHFDKTTFSKLIHVPKEDNSKEVTLDSLLEEGVLDKEIHKAITRMEFPGLTPVQQKTIKPILSSEDHDVIARAKTGTGKTFAFLIPIFQHLINTKFDSQYMVKAVIVAPTRDLALQIEAEVKKIHDMNYGLKKYACVSLVGGTDFRAAMNKMNKLRPNIVIATPGRLIDVLEKYSNKFFRFVDYKVLDEADRLLEIGFRDDLETISGILNEKNSKSADNIKTLLFSATLDDKVQKLANNIMNKKECLFLDTVDKNEPEAHERIDQSVVISEKFANSIFAAVEHIKKQIKERDSNYKAIIFAPTVKFTSFLCSILKNEFKKDLPILEFHGKITQNKRTSLVKRFKKDESGILVCTDVGARGMDFPNVHEVLQIGVPSELANYIHRIGRTARSGKEGSSVLFICKDELPFVRELEDAKNIVIAKQEKYEPSEEIKSEVLEAVTEEPEDISDIVISLISSYRSCIKEYRFSERRILPEIASTYGVLLNDPQLKIPVSRRFLDKLGLSRSPIGKAMFEIRDYSSRDGNNKSYDYDDDSEISFRGNKNYNNRSQNRDYDDEPFRRSNNNRRSFSRSNDKNNYSSRNSNIY
binds | Edc3-GFP (protein, UniProt P39998 1-551) MSQFVGFGVQVELKDGKLIQGKIAKATSKGLTLNDVQFGDGGKSQAFKVRASRLKDLKVLTVASQSGKRKQQRQQQQQNDYNQNRGEHIDWQDDDVSKIKQQEDFDFQRNLGMFNKKDVFAQLKQNDDILPENRLQGHNRKQTQLQQNNYQNDELVIPDAKKDSWNKISSRNEQSTHQSQPQQDAQDDLVLEDDEHEYDVDDIDDPKYLPITQSLNITHLIHSATNSPSINDKTKGTVINDKDQVLAKLGQMIISQSRSNSTSLPAANKQTTIRSKNTKQNIPMATPVQLLEMESITSEFFSINSAGLLENFAVNASFFLKQKLGGRARLRLQNSNPEPLVVILASDSNRSGAKALALGRHLCQTGHIRVITLFTCSQNELQDSMVKKQTDIYKKCGGKIVNSVSSLESAMETLNSPVEIVIDAMQGYDCTLSDLAGTSEVIESRIKSMISWCNKQRGSTKVWSLDIPNGFDAGSGMPDIFFSDRIEATGIICSGWPLIAINNLIANLPSLEDAVLIDIGIPQGAYSQRTSLRKFQNCDLFVTDGSLLLDL
